This test deals with HEK293A TEAD-LUC reporter. The experiment in a line: TEAD-luciferase reporter activity (YAP activation), robust Z score vs plate; higher = stronger YAP/TEAD activation. The settings on record: 24 h. On the technique in general: Reporter assays use an easily measured gene product as a stand-in for the process of interest.

Each structure is given as a SMILES string. The list shows a part of the results. Single values are uncertain here, since repeats match poorly.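 In a drug-repurposing library screen, luminescence reads luciferase driven by eight TEAD-binding elements, stably integrated into human kidney-derived cells. Compounds scoring over five robust Z scores above the plate mean are called hits.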

For the compound `O=C(NC1CCCN(c2nc3ncccc3o2)C1)c1ccccc1` (stereo not drawn), the TEAD-luciferase reporter activity runs as follows: (compound concentration: 200 nM) inactive: 4.86; (compound concentration: 10 uM) inactive: 2.31.
For `CC[C@]1(c2cccc(NS(C)(=O)=O)c2)[C@@H]2CN(CC3(O)Cc4ccccc4C3)C[C@@H]21`, the TEAD-luciferase reporter activity (compound concentration: 200 nM) was inactive: 4.33, the TEAD-luciferase reporter activity (compound concentration: 2 uM) is inactive: -0.654 and the TEAD-luciferase reporter activity (compound concentration: 10 uM) was inactive: 1.2.
In the same order, the values of `Cc1ccc(-c2c3n(c(=O)c4ncccc24)CC[C@H](C)CN(Cc2cc(C(F)(F)F)cc(C(F)(F)F)c2)C3=O)cc1` are inactive: -0.808, inactive: 0.571 and inactive: 1.83.
As to `COc1cc2c(Nc3ccc(NC(=O)c4ccccc4)cc3)ncnc2cc1OCCCN1CCOCC1`, the TEAD-luciferase reporter activity by setting is: (compound concentration: 200 nM) inactive: 0.353; (compound concentration: 2 uM) inactive: -0.923; (compound concentration: 10 uM) inactive: 2.05.
The corresponding values for `CCN(CC)CCN1C(=O)c2c(c3c4cccc(Cl)c4n([C@@H]4O[C@H](CO)[C@@H](OC)[C@H](O)[C@H]4O)c3c3[nH]c4c(Cl)cccc4c23)C1=O` [Becatecarin] are inactive: -0.0296, inactive: -1.14 and inactive: -1.09.
The corresponding values for `CC1(C)CC(NC(=O)C(=O)Nc2ccc(Cl)cc2)CC(C)(C)N1` are inactive: 0.0138, inactive: 1.41 and inactive: -1.82.
The corresponding values for `CCC(=O)OC(CC)(c1ccccc1)C1CCN(C)C1` (stereo not drawn) are inactive: 0.344, inactive: -0.238 and inactive: 2.97.
With `CCCCC[C@H](O)/C=C/[C@H]1[C@H](O)CC(=O)[C@@H]1CCCCCCC(=O)O` [lipo-alprostadil], the TEAD-luciferase reporter activity (compound concentration: 2 uM) is inactive: -0.655.
Take `CCCCC[C@H](O)/C=C/[C@H]1[C@H](O)CC(=O)[C@@H]1CCCCCCC(=O)O` [Prostaglandin E1]: the TEAD-luciferase reporter activity (compound concentration: 200 nM) is inactive: -0.655 and the TEAD-luciferase reporter activity (compound concentration: 10 uM) is inactive: 2.2.
Take `O=C(NC1CCCCCC1)C1CCN(c2ccnc(C(F)(F)F)n2)CC1`: the TEAD-luciferase reporter activity was inactive: -1.55 (compound concentration: 200 nM), inactive: -0.0478 (compound concentration: 2 uM) and inactive: -1.8 (compound concentration: 10 uM).
The corresponding values for `C[C@]1(C(=O)N(CCCC(=O)O)Cc2cccc(Cl)c2)CCN1C(=O)c1csc2ccccc12` are inactive: -0.964, inactive: -0.647 and inactive: 1.63.
Take `Cc1ccc(-n2c(COc3ccc(Cl)c(C)c3)n[nH]c2=O)cc1`: the TEAD-luciferase reporter activity was inactive: -1.64 (compound concentration: 200 nM), inactive: -1.17 (compound concentration: 2 uM) and inactive: -0.866 (compound concentration: 10 uM).
The corresponding values for `CCC(=O)O[C@@H]1CC(=O)O[C@H](C)C/C=C/C=C/[C@H](O)[C@H](C)C[C@H](CC=O)[C@H](O[C@@H]2O[C@H](C)[C@@H](O[C@H]3C[C@@](C)(O)[C@@H](OC(=O)CC)[C@H](C)O3)[C@H](N(C)C)[C@H]2O)[C@H]1OC` [Midecamycin] are inactive: -1.33, inactive: 0.109 and inactive: 1.72.
On to `Nc1nc(CC(=O)Nc2ccc(CCNC[C@H](O)c3ccccc3)cc2)cs1` [Mirabegron], for which the TEAD-luciferase reporter activity runs as follows: (compound concentration: 200 nM) inactive: -2.81; (compound concentration: 2 uM) inactive: -1.12; (compound concentration: 10 uM) inactive: -1.37.
On to `NC(=O)NC(c1ccccc1)c1cccc(Cl)c1` (stereo not drawn) [meta-Chlorobenzhydryl urea], for which the TEAD-luciferase reporter activity runs as follows: (compound concentration: 200 nM) inactive: -0.875; (compound concentration: 2 uM) inactive: -1.26; (compound concentration: 10 uM) inactive: -1.11.
In the same order, the values of `COc1cc2nc(N3CCN(C(=O)CC(C)O)CC3)nc(N)c2cc1OC` (stereo not drawn) are inactive: -1.67, inactive: -0.918 and inactive: 1.52.
Take `CC(=O)OCC(COC(C)=O)OC(C)=O` [Triacetin]: the TEAD-luciferase reporter activity is inactive: 4.11 (compound concentration: 200 nM), inactive: -1.19 (compound concentration: 2 uM) and inactive: 0.599 (compound concentration: 10 uM).
In the case of `Cc1cc2c(cc1C)C(=O)c1[nH]nnc1C2=O`, the TEAD-luciferase reporter activity reads like this: (compound concentration: 200 nM) inactive: -1.35; (compound concentration: 2 uM) inactive: -0.801; (compound concentration: 10 uM) inactive: -2.
In the same order, the values of `CC(C)(CO)NCC(=O)N1C[C@@H](F)C[C@H]1C#N` are inactive: -1.4, inactive: 0.556 and inactive: 2.13.
Regarding `Cc1ccc(N2CCc3ncnc(NC(C)c4cnc(C)nc4)c3C2)nc1` (stereo not drawn), the TEAD-luciferase reporter activity (compound concentration: 200 nM) was inactive: 0.249, the TEAD-luciferase reporter activity (compound concentration: 2 uM) was inactive: -0.746 and the TEAD-luciferase reporter activity (compound concentration: 10 uM) was inactive: 1.89.
Consider `CN(C)CC(=O)N1CCC(c2ccc(NC(=O)c3nc(C#N)c[nH]3)c(C3=CCCCC3)c2)CC1`, for which the TEAD-luciferase reporter activity was inactive: -0.984 (compound concentration: 200 nM), inactive: 0.359 (compound concentration: 2 uM) and inactive: 2.79 (compound concentration: 10 uM).
In the same order, the values of `CC(=O)NCC(=O)N[C@@H](C)C(=O)N[C@@H](CCC(N)=O)C(=O)N[C@@H](Cc1ccccc1)C(=O)N[C@@H](CO)C(=O)N[C@@H](CCCCN)C(=O)N[C@H](C(=O)N[C@@H](C)C(=O)N[C@@H](C)C(=O)N[C@@H](CCCCN)C(=O)O)[C@@H](C)O` are inactive: 0.257, inactive: 0.817 and inactive: 1.38.
In the same order, the values of `O=c1c(O)c(-c2ccc(O)c(O)c2)oc2cc(O)cc(O)c12` are inactive: 0.254, inactive: 0.458 and inactive: -0.647.
As for `COc1ccccc1NS(=O)(=O)/C=C/c1ccccc1`, the TEAD-luciferase reporter activity (compound concentration: 200 nM) is inactive: 0.174, the TEAD-luciferase reporter activity (compound concentration: 2 uM) is inactive: 0.0502 and the TEAD-luciferase reporter activity (compound concentration: 10 uM) is inactive: -1.46.
`CC(C)/N=c1\cc2n(-c3ccc(Cl)cc3)c3ccccc3nc-2cc1Nc1ccc(Cl)cc1`: the TEAD-luciferase reporter activity (compound concentration: 200 nM) was inactive: -0.973 and the TEAD-luciferase reporter activity (compound concentration: 10 uM) was inactive: -1.22.
`CC(C)/N=c1\cc2n(-c3ccc(Cl)cc3)c3ccccc3nc-2cc1Nc1ccc(Cl)cc1` [Clofazimine]: the TEAD-luciferase reporter activity (compound concentration: 2 uM) is inactive: 0.644.
For `CCOCCN(Cc1ccc(CN(CCOCC)C(=O)C(Cl)Cl)cc1)C(=O)C(Cl)Cl`, the TEAD-luciferase reporter activity is inactive: -0.879 (compound concentration: 200 nM), inactive: -1.31 (compound concentration: 2 uM) and inactive: 1.23 (compound concentration: 10 uM).
For the compound `C[C@@H]1[C@H](O)[C@@H](C)/C=C/C=C/C=C/C=C/C=C/C=C/C=C/[C@H](O[C@@H]2O[C@H](C)[C@@H](O)[C@H](N)[C@@H]2O)C[C@@H]2O[C@](O)(C[C@@H](O)C[C@@H](O)[C@H](O)CC[C@@H](O)C[C@@H](O)CC(=O)O[C@H]1C)C[C@H](O)[C@H]2C(=O)O` [Amphotericin B], the TEAD-luciferase reporter activity was inactive: 1.48 (compound concentration: 200 nM) and inactive: -1.57 (compound concentration: 10 uM).
In the case of `C[C@@H]1[C@H](O)[C@@H](C)/C=C/C=C/C=C/C=C/C=C/C=C/C=C/[C@H](O[C@@H]2O[C@H](C)[C@@H](O)[C@H](N)[C@@H]2O)C[C@@H]2O[C@](O)(C[C@@H](O)C[C@@H](O)[C@H](O)CC[C@@H](O)C[C@@H](O)CC(=O)O[C@H]1C)C[C@H](O)[C@H]2C(=O)O`, the TEAD-luciferase reporter activity (compound concentration: 2 uM) was inactive: 1.61.
For `COc1ccc(S(=O)(=O)Nc2cccc3c2Nc2ccc(F)cc2CN3)cc1`, the TEAD-luciferase reporter activity by setting is: (compound concentration: 200 nM) inactive: -0.709; (compound concentration: 2 uM) inactive: 0.909; (compound concentration: 10 uM) inactive: 1.27.
With `CCOC(=O)C1=C[C@@H](OC(CC)CC)[C@H](NC(C)=O)[C@@H](N)C1` [oseltamivir phosphate (tablet)], the TEAD-luciferase reporter activity was inactive: -1.05 (compound concentration: 200 nM), inactive: 1.95 (compound concentration: 2 uM) and inactive: -1.14 (compound concentration: 10 uM).

(Values after the supplement of paper PMC10735217.)
